PubChem BioAssay AID1259308, NCATS, 2017
Test: 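Knock-downs that increase output of a recombinant reporter protein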 (primary screen). Cells: human HEK293 embryonic kidney cells stably expressing firefly luciferase (HEK-CMV-Luc2-Hygro). Knock-down reagent: single siRNA against human genes, 0.8 pmol siRNA per well. Duration: 72 h. Detection: 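Luciferase light (ONE-Glo) measured on one replicate plate set and viability (CellTiter-Glo) on the other, scaled to a negative control siRNA, with robust z-scores and luciferase per cell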. Direction: total luciferase, z-score and total luciferase, % of control: higher = more reporter protein produced; luciferase per cell, z-score: higher = more reporter output per viable cell; viable cells, % of control: higher = more viable cells. Rule for the call: 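An siRNA counts as active if its total luciferase robust z-score exceeds 3; genes with two or more such siRNAs out of three were retested with fresh siRNAs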. Meaning of the calls: active = raised luciferase; inactive = no rise.
The whole screen tested about 59,000 reagents; this is a random part of them. About 1,510 of all reagents (2.6%) count as active. 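Calls use total luciferase alone and ignore viability, so some active siRNAs may act by altering cell number.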 The numbers tell different reagents against one gene apart.

gene symbol	siRNA no.	total luciferase, z-score	total luciferase, % of control	luciferase per cell, z-score	viable cells, % of control	activity call
RPA3	1	0.577	93.4	0.605	89	inactive
RPA3	2	-1.94	43.4	-2.37	90.4	inactive
RPA3	3	0.645	94.7	-0.17	111	inactive
GUSBP18	1	-0.549	71	0.193	75.4	inactive
GUSBP18	2	0.211	86.1	-0.0286	96.9	inactive
GUSBP18	3	-0.335	75.2	0.0784	82.3	inactive
HOXC6	1	-0.501	71.9	-0.906	102	inactive
HOXC6	2	0.711	96	1.07	80.9	inactive
HOXC6	3	3.06	143	2	94.1	active
DBH	1	-1.25	57	-1.34	90.5	inactive
DBH	2	-0.527	71.4	-0.212	84.4	inactive
DBH	3	-0.578	70.4	-0.0784	80.3	inactive
SERF2	1	1.14	105	1.57	77.3	inactive
SERF2	2	0.228	86.4	0.206	91.5	inactive
SERF2	3	0.0784	83.4	-0.0883	95.4	inactive
CAMLG	1	0.124	84.4	0.269	87.8	inactive
CAMLG	2	-1.11	59.8	0.000429	66.8	inactive
CAMLG	3	4.17	165	2.75	89.2	active
SKA2	1	-0.541	71.1	-0.422	88.8	inactive
SKA2	2	-0.693	68.1	-0.891	96.2	inactive
SKA2	3	-1.07	60.6	-1.08	90	inactive
PHB2	1	0.359	89	-0.255	106	inactive
PHB2	2	-0.00167	81.9	0.15	87.9	inactive
PHB2	3	-1.62	49.7	-1.12	74.7	inactive
GLIS2	1	1.88	119	1.41	91.9	inactive
GLIS2	2	-1.74	47.2	-1.52	78.6	inactive
GLIS2	3	1.19	106	1.56	78.2	inactive
RNF180	1	1.27	107	0.345	109	inactive
RNF180	2	-0.527	71.4	-0.554	92.3	inactive
RNF180	3	-1.53	51.5	-1.35	82.1	inactive
OR7C1	1	-1.84	45.2	-1.43	73.7	inactive
OR7C1	2	0.512	92.1	0.436	91.7	inactive
OR7C1	3	-0.583	70.3	-0.238	83.6	inactive
UNC50	1	-0.203	77.8	0.591	74.4	inactive
UNC50	2	-0.518	71.6	-0.337	87.4	inactive
UNC50	3	0.454	90.9	0.558	87.7	inactive
MOGS	1	-0.648	69	-1.12	104	inactive
MOGS	2	0.911	100	0.641	94.4	inactive
MOGS	3	0.47	91.2	0.583	87.4	inactive

Quoted from the entries so far, 6 entries:
gene symbol	siRNA no.	total luciferase, z-score	total luciferase, % of control	luciferase per cell, z-score	viable cells, % of control	activity call
PHB2	3	-1.62	49.7	-1.12	74.7	inactive
GLIS2	1	1.88	119	1.41	91.9	inactive
GLIS2	2	-1.74	47.2	-1.52	78.6	inactive
GLIS2	3	1.19	106	1.56	78.2	inactive
RNF180	1	1.27	107	0.345	109	inactive
RNF180	2	-0.527	71.4	-0.554	92.3	inactive
